{"source": "patent US20260263644A1", "about": "“USE OF POSITRON MYOCARDIAL FATTY ACID METABOLISM IMAGING AGENT AND POSITRON 18F-FDG MYOCARDIAL GLUCOSE IMAGING AGENT IN PET COMBINED IMAGING” (priority 2023, published 2026)", "key": {"[1]": {"system": "anterior wall myocardium with chronic myocardial infarction", "experiment": "Combined 18F-FDG and XTR003 PET myocardial metabolic imaging under fasting in the chronic myocardial infarction pig model", "assay_type": "in vivo, Bama miniature pig", "details": "for uptake in the myocardial infarction area (PET myocardial metabolic image): 18F-FDG 1mCi first", "procedure": "Each experiment used a Bama miniature pig approximately one year old, and the experiment was repeated three times. Taking the second of the three experiments as an example: the piglet weighed approximately 10 kg. A constrictive ring was placed at the site of the left anterior descending coronary artery to gradually induce chronic myocardial infarction in the anterior wall myocardium. Four weeks later, for comparative purposes, a ^99mTc-Sestamibi SPECT myocardial perfusion imaging was performed in the morning (this imaging is the gold standard for assessing viable and scarred myocardium in the infarcted area and was used in this study as a reference for comparing PET imaging results). In the afternoon, a one-day protocol for combined ^18F-FDG and XTR003 PET imaging was performed (with at least 2-hour interval from the SPECT conducted in the morning, during which fasting was maintained). ^18F-FDG PET imaging was performed first, followed by XTR003 PET imaging. The injection doses of the above two agents were 1mCi and 2.5mCi, respectively. XTR003 was injected 1 hour after the ^18F-FDG injection, followed immediately by PET imaging. Each experiment used a Bama miniature pig about one year old, and the experiment was repeated three times. Taking the second of the three experiments as an example: the piglet weighed approximately 11 kg. A constriction ring was placed at the site of the left anterior descending coronary artery to gradually induce chronic myocardial infarction in the anterior wall myocardium. Three weeks later, for comparative purposes, a 99mTc-Sestamibi SPECT myocardial perfusion imaging was performed in the morning. In the afternoon, a one-day protocol combining ^18F-FDG and XTR003 PET imaging was performed, ^18F-FDG PET imaging was performed first, followed by XTR003 PET imaging. The injection doses of the above two agents were 1mCi and 3.1mCi, respectively. Among them, XTR003 was injected 1 hour after the ^18F-FDG injection, followed immediately by PET imaging. A disease animal model was constructed as described in Example 1. After myocardial perfusion imaging, “a one-day protocol combining ^18F-FDG PET and XTR003 PET imaging” was performed, wherein XTR003 was injected one hour after the injection of ^18F-FDG, followed immediately by PET imaging. The only difference between the Comparative Example and Example 1 is that the injection doses of the above two agents were 1 mCi and 0.25 mCi, respectively. The results of the combined ^18F-FDG and XTR003 PET imaging (also used the second experiment out of three replicates as an example) are shown in FIGS. 3a-3b. In the Figs.: An animal model of the disease was constructed as described in Example 1, differing only in the order of imaging; specifically, XTR003 PET imaging was performed first, followed by ^18F-FDG PET imaging. The injection doses of the two agents were 1 mCi and 3 mCi, respectively. In the Figs.: An animal model of the disease was constructed as described in Example 3. After myocardial perfusion, “a one-day protocol combining XTR003 PET and ^18F-FDG PET imaging” was performed, wherein ^18F-FDG was injected one hour after the injection of XTR003, followed immediately by PET imaging. The only difference between the Comparative Example and Example 3 was that the injection doses of the above two agents were 1 mCi and 0.25 mCi, respectively. In the Figs.: The disease animal model was constructed according to the description of Example 1. The only difference from Example 1 was that after the myocardial perfusion imaging, a “two-day protocol combining ^18F-FDG PET and XTR003 PET imaging” was performed instead of the “one-day protocol”. In the Figs.: An animal model of the disease was constructed as described in Example 1. After myocardial perfusion imaging, a “a one-day protocol combining ^18F-FDG PET and XTR003 PET imaging” was performed, wherein XTR003 was injected one hour after the injection of ^18F-FDG, followed immediately by PET imaging. […]"}, "[2]": {"system": "normal myocardium", "experiment": "Separate PET imaging with a single imaging agent, without combination", "assay_type": "in vivo, Bama miniature pig", "details": "Comparative Example 3; fasting; each agent administered separately, not in combination; FIGS. 7a, 7b", "procedure": "Each experiment was performed using a Bama miniature pig of about one year old, and the experiment was repeated three times; taking the second experiment of the three experiments as an example: the piglet weighed about 10 kg, and the two imaging agents were administered separately for imaging rather than in combination. The results of separate PET imaging with ^18F-FDG and XTR003 are shown in FIGS. 7a and 7b, respectively."}}, "note": "“Also recorded” adds a separate entry of the source. At least one structure is not confirmed: it was looked up by name or label, or the drawing left a doubt."}
{"smiles": "OCC1O[C@@H](O)C(O)C(O)[C@@H]1O", "note": "(stereo partly shown) [^18F-FDG, fluorodeoxyglucose]", "values": [{"measurement": "image quality of myocardial metabolic images", "setting": "[1]; Comparative Example 1, one-day protocol, 18F-FDG 1 mCi first, then XTR003 0.25 mCi, FIGS. 3a-3b", "result": "normal image quality"}, {"measurement": "image quality of myocardial metabolic images", "setting": "[1]; Comparative Example 2, one-day protocol, XTR003 1 mCi first, then 18F-FDG 0.25 mCi, FIGS. 5a-5b", "result": "excessive image noise"}, {"measurement": "uptake in the myocardial infarction area (PET myocardial metabolic image)", "setting": "[1]; Example 1, one-day protocol, XTR003 2.5mCi injected 1 hour later, FIGS. 1b-1c", "result": "low"}, {"measurement": "uptake in the myocardial infarction area (PET myocardial metabolic image)", "setting": "[1]; Example 2, one-day protocol, XTR003 3.1mCi injected 1 hour later, FIGS. 2b-2c", "result": "no ^18F-FDG uptake"}, {"measurement": "image quality of myocardial metabolic images", "setting": "[1]; Example 3, one-day protocol, XTR003 1 mCi first, then 18F-FDG 3 mCi, FIGS. 4a-4b", "result": "normal image quality"}, {"measurement": "image quality of myocardial metabolic images", "setting": "[1]; Example 4, two-day protocol, FIGS. 6a-6b", "result": "normal image quality"}, {"measurement": "visibility of myocardial metabolic images", "setting": "[2]", "result": "not visible; also recorded: hardly shows any image"}]}
